From US20170362323A1 (Kyowa Kirin, published 2017) come the findings set out here.

Protein sequences, listed by entry. Tags and fused reporters are not part of them. Lines headed by an entry give the natural chain unless they say otherwise; changes in a name come on top. Chains listed by the source or under a name are the forms on record and can include a tag or linker.
recombinant CD74 protein (Santa Cruz Biotechnology) (P04233, form named): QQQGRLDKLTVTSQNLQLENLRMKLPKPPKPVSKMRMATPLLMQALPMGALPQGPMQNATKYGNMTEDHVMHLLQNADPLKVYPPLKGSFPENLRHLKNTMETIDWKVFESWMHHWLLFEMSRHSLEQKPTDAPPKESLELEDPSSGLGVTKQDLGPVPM

The assay has as its target recombinant CD74 protein (Santa Cruz Biotechnology) (human) (UniProt P04233). The experiment in a line: ELISA, CD74 coated at 2 ug/mL, detection with peroxidase-labeled anti-human kappa chain antibody. Background: An ELISA detects its analyte on a solid surface through an enzyme-linked reagent.

Results are given in words; binding and its absence hold for the method and conditions named. Some binding calls cover weakened binding; strength is not graded here.

B1: anti-CD74 IgG1 antibody hLL1 F (antibody, V domains shown)
VH: QVQLQQSGSELKKPGASVKVSCKASGYTFTNYGVNWIKQAPGQGLQWMGWINPNTGEPTFDDDFKGRFAFSLDTSVSTAYLQISSLKADDTAVYFCSRSRGKNEAWFAYWGQGTLVTVSS
VL: DIQLTQSPLSLPVTLGQPASISCRSSQSLVHRNGNTYLHWFQQRPGQSPRLLIYTVSNRFSGVPDRFSGSGSGTDFTLKISRVEAEDVGVYFCSQSSHVPPTFGAGTRLEIK
Regarding B1, the binding result is on record as “binds”.
